Measured values from US20200262889A1.
These are yes or no findings as the source states them, for the method shown. Binding seen in cells or lysates may run through a third protein. Some results given as binding are weak or reduced against the parent protein; the word gives no strength. Values belong to the binder of their own block, whether it stands above or below them.

Key:
[1] = target: T1, human NaDC-1 (Solute carrier family 13 member 2, Slc13a2), wild type (human) (UniProt Q13183); assay: co-immunoprecipitation of WT hNaDC-1 and WT hSLC26a6
T1 sequence (looked up): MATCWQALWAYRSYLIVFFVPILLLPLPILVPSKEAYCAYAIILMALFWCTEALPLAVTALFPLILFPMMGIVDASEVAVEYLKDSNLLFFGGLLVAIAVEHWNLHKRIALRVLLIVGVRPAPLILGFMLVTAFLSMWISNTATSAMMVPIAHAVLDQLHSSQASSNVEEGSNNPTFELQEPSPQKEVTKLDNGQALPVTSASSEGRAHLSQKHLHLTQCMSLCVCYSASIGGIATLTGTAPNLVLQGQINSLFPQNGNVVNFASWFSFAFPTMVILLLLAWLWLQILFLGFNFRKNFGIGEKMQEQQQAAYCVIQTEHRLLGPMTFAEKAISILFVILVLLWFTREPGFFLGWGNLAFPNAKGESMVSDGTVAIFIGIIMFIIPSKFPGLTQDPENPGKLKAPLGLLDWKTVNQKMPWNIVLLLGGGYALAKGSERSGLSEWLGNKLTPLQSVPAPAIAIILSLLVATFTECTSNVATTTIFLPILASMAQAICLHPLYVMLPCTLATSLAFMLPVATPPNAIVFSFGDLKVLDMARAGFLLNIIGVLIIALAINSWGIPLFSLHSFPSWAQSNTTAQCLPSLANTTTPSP

[2] = target: T1, human NaDC-1 (Solute carrier family 13 member 2, Slc13a2), wild type (human); assay: co-immunoprecipitation of WT NaDC-1 with WT slc26a6

binding [1]: binds
B1: human SLC26A6, wild type (protein)
chain: MGLADASGPRDTQALLSATQAMDLRRRDYHMERPLLNQEHLEELGRWGSAPRTHQWRTWLQCSRARAYALLLQHLPVLVWLPRYPVRDWLLGDLLSGLSVAIMQLPQGLAYALLAGLPPVFGLYSSFYPVFIYFLFGTSRHISVGTFAVMSVMVGSVTESLAPQALNDSMINETARDAARVQVASTLSVLVGLFQVGLGLIHFGFVVTYLSEPLVRGYTTAAAVQVFVSQLKYVFGLHLSSHSGPLSLIYTVLEVCWKLPQSKVGTVVTAAVAGVVLVVVKLLNDKLQQQLPMPIPGELLTLIGATGISYGMGLKHRFEVDVVGNIPAGLVPPVAPNTQLFSKLVGSAFTIAVVGFAIAISLGKIFALRHGYRVDSNQELVALGLSNLIGGIFQCFPVSCSMSRSLVQESTGGNSQVAGAISSLFILLIIVKLGELFHDLPKAVLAAIIIVNLKGMLRQLSDMRSLWKANRADLLIWLVTFTATILLNLDLGLVVAVIFSLLLVVVRTQMPHYSVLGQVPDTDIYRDVAEYSEAKEVRGVKVFRSSATVYFANAEFYSDALKQRCGVDVDFLISQKKKLLKKQEQLKLKQLQKEEKLRKQAASPKGASVSINVNTSLEDMRSNNVEDCKMMQVSSGDKMEDATANGQEDSKAPDGSTLKALGLPQPDFHSLILDLGALSFVDTVCLKSLKNIFHDFREIEVEVYMAACHSPVVSQLEAGHFFDASITKKHLFASVHDAVTFALQHPRPVPDSPVSVTRL

binding [2]: binds
B2: mouse slc26a6 (solute carrier family 26 member 6), wild type (protein, not shown: small tags and cut ends)
chain: MELQRRDYHVERPLLNQEQLEDLGHWGPAAKTHQWRTWFRCSRARAHSLLLQHVPVLGWLPRYPVREWLLGDLLSGLSVAIMQLPQGLAYALLAGLPPMFGLYSSFYPVFIYFLFGTSRHISVGTFAVMSVMVGSVTESLTADKAFVQGLNATADDARVQVAYTLSFLVGLFQVGLGLVHFGFVVTYLSEPLVRSYTTAASVQVLVSQLKYVFGIKLSSHSGPLSVIYTVLEVCAQLPETVPGTVVTAIVAGVALVLVKLLNEKLHRRLPLPIPGELLTLIGATGISYGVKLNDRFKVDVVGNITTGLIPPVAPKTELFATLVGNAFAIAVVGFAIAISLGKIFALRHGYRVDSNQELVALGLSNLIGGFFQCFPVSCSMSRSLVQESTGGNTQVAGAVSSLFILLIIVKLGELFRDLPKAVLAAVIIVNLKGMMKQFSDICSLWKANRVDLLIWLVTFVATILLNLDIGLAVSIVFSLLLVVVRMQLPHYSVLGQVPDTDIYRDVAEYSGAKEVPGVKVFRSSATLYFANAELYSDSLKEKCGVDVDRLITQKKKRIKKQEMKLKRMKKAKKSQKQDASSKISSVSVNVNTNLEDVKSNDVEGSEAKVHQGEELQDVVSSNQEDAKAPTMTSLKSLGLPQPGFHSLILDLSTLSFVDTVCIKSLKNIFRDFREIEVEVYIAACYSPVVAQLEAGHFFDESITKQHVFASVHDAVTFALSHRKSVPKSPVLATKL
